Test results reported in paper PMC6010621.

Sequences of proteins named here, by UniProt entry; tags and fusion partners are left off. A change or cut given only in a name is not applied to a line headed by its entry.
UniProt Q57ZF1: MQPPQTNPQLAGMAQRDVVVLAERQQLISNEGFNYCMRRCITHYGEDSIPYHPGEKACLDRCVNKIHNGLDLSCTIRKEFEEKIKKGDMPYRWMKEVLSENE
UniProt Q382K7: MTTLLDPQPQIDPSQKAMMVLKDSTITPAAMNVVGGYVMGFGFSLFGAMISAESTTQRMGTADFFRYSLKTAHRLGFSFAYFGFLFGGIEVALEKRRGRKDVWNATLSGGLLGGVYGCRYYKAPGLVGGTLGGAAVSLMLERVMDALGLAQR
UniProt Q57XQ4: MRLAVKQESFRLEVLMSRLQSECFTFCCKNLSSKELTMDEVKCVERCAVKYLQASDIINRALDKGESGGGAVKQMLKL

Target: TbTim10-Myc (Trypanosoma brucei) (UniProt Q57ZF1)
Assay: affinity purification with mass spectrometry; anti-myc agarose immunoprecipitate from digitonin-solubilized TbTim10-Myc mitochondrial extract (co-IP protocol scaled up 5-fold), in-gel trypsin digestion, LC-MS/MS; parental wild-type cells as control

## T. brucei Tim17 (TbTim17) (from UniProt Q382K7)
  binding: binds

## TbTim9 (endogenous) (from UniProt Q57XQ4)
  binding: binds

Results are given in words; binding and its absence hold for the method and conditions named. Binding seen in cells or lysates may run through a third protein. A yes stands for co-enrichment or nearness to the bait. Other partners may have been found.
